Experimental data published in patent EP4700041A1, “NOVEL PEPTIDE HAVING ACTIVITY OF RETARDING DEGRADATION OF HYALURONIC ACID AND USES THEREOF” (Caregen Co., Ltd., priority 2023, dated 2026).
At least one peptide structure holds a part that was inferred or is arguable (an end, a ring closure or a residue). Ends that are not written are not given here.

Assays:
hyaluronic acid (HA) [1] = test: Hyaluronic acid (HA) expression, ELISA of culture supernatant; type: cell-based, mouse; settings: NIH3T3 cells; peptide 50 µM to 200 µM, 72 hours; FIG. 2
collagen [2] = test: Collagen expression, ELISA of culture supernatant; type: cell-based, mouse; settings: NIH3T3 cells; peptide 50 µM to 200 µM, 72 hours; FIG. 2
[3] = tested on: hyaluronidase from bovine testes; test: Delay of hyaluronic acid degradation by hyaluronidase in hyaluronic acid solution (viscosity, rheometer); type: biochemical; settings: 30 minutes
collagen [4] = test: Collagen expression, ELISA of culture supernatant; type: cell-based, human; settings: HaCaT cells; peptide 50 µM to 200 µM, 72 hours; FIG. 2
[5] = tested on: NIH3T3 cells (mouse fibroblast); test: Cell proliferation analysis (MTT); type: cell-based; settings: peptide 1.6 µM to 1000 µM, 72 hours, absorbance 540 nm, FIG. 1
hyaluronic acid (HA) [6] = test: Hyaluronic acid (HA) expression, ELISA of culture supernatant; type: cell-based, human; settings: HaCaT cells; peptide 50 µM to 200 µM, 72 hours; FIG. 2
[7] = tested on: HaCaT cells (human keratinocyte cell line); test: Cell proliferation analysis (MTT); type: cell-based; settings: peptide 1.6 µM to 1000 µM, 72 hours, absorbance 540 nm, FIG. 1
hyaluronidase (HAdase) = test: Delay of hyaluronic acid degradation by hyaluronidase in BDDE-cross-linked filler (Congo Red diffusion, absorbance 500 nm); type: biochemical; settings: BDDE-cross-linked hyaluronic acid filler with peptide vs peptide-free control filler; 24 hours after treatment with hyaluronidase, 37°C; FIG. 4

With “KIWNLEPSRNGT [SEQ ID NO: 1, KIWNLEPSRNGT]” the “hyaluronic acid (HA) expression” value (hyaluronic acid (HA) [1]) was “increase in hyaluronic acid (HA) expression”, the collagen expression (collagen [2]) was “significant increase in collagen expression” and the “degradation of hyaluronic acid by hyaluronidase (viscosity)” value ([3]; 1.5 wt% hyaluronic acid solution in PBS, peptide 100 ppm, 1000 ppm, 5000 ppm, FIG. 3) was “degradation of hyaluronic acid was delayed as the concentration of the peptide increased”. The “difference in the degradation delay efficacy of 1000 ppm and 5000 ppm” value ([3]; 1.5 wt% hyaluronic acid solution, hyaluronidase) was “not significant”, the collagen expression (collagen [4]) was “significant increase in collagen expression” and the cell proliferation [5] was “significant effect of promoting cell proliferation”. For the same sequence, the “hyaluronic acid (HA) expression” value (hyaluronic acid (HA) [6]) was “increase in hyaluronic acid (HA) expression”, the cell proliferation [7] was “significant effect of promoting cell proliferation” and the “delay of degradation improved” value (hyaluronidase (HAdase)) was at least 15%.
